Experimental data reported in patent publication US20190032056.

Amino acid sequences for entries named in this document (tags omitted). Residues count along the entry.
UniProt P00746, 26-253: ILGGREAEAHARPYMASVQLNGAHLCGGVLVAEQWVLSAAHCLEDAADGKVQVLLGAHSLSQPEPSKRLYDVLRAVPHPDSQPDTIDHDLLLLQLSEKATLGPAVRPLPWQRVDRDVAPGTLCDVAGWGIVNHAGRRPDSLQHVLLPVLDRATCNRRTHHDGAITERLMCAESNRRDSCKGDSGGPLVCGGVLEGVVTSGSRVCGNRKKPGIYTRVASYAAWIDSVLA

Experiments:
[1] = biological target: complement Factor D (fD) in C1q-depleted human serum (Homo sapiens) (UniProt P00746); assay: inhibition of the protein; conditions: protein in an extract, protein details: endogenous fD, about 9.6 nM in 10% serum
[2] = biological target: complement Factor D (fD) (Homo sapiens) (UniProt P00746); assay: inhibition of the protein; conditions: 2'-F G, 3' idT, dose not given here
[3] = tested on: human growth factor (non-specific target on beads) (Homo sapiens); assay: flow cytometry; conditions: 2'-F G; 2'-OMe A,C,U; 100 nM aptamer, 37 C; protein details: bead-immobilized
[4] = 2'-F G, 2'-OMe A,C,U, 5' C6NH2, 3' idT, hemolysis, loop 3 shortened not tolerated, variant of Aptamer 15
[5] = 2'-F G, 2'-OMe A,C,U, 5' C6NH2, 3' idT, hemolysis, 4 bp stem 2 not tolerated, variant of Aptamer 15
[6] = 2'-F G, 2'-OMe A,C,U, 9-carbon spacer [I-9] between parts, 5' C6NH2, 3' idT, hemolysis, loop 2 spacer tolerated, variant of Aptamer 15
[7] = 2'-F G, 2'-OMe A,C,U, 5' C6NH2, 3' idT, hemolysis, loop 2 shortened without spacer not tolerated, variant of Aptamer 15

Sequence: CCGCCUUGCCAGUAUUGGCUUAGGCUGGAAGUUUGGCGGU [Aptamer 15 C3 spacer at 29]
- functional effect of the aptamer ([1]; as Aptamer 15, 3-carbon spacer replaces nt 29, hemolysis, complete loss of activity, variant of Aptamer 15): not active

Sequence: GCCUUGCCAGUAUUGGCGAUGGCUGGAAGUUUGGC [Aptamer 58]
- IC50 ([1]; 2'-F G, 2'-OMe A,C,U, 5' C6NH2, 3' idT, hemolysis, variant of Aptamer 39): > 100 nM

Sequence: AGGCCGCCUUGCCAGUAUUGGCUUAGGCUGGAAGUUUGGCGGCUU [S31]
- functional effect of the aptamer ([2]; 2'-OMe A, C, U, 5' C6 disulfide, inhibits Z-Lys-SBzl esterase and C3bB convertase activity, data shown for S32 as example): active

Sequence: CCGCCUUGCCAGUAUUGGCUUAGGCUGGAAGUUUGGCGGU [Aptamer 15 C3 spacer at 30]
- functional effect of the aptamer ([1]; as Aptamer 15, 3-carbon spacer replaces nt 30, hemolysis, complete loss of activity, variant of Aptamer 15): not active

Sequence: CCGACUUGCCAGUAUAGGCUUAUGCUGGAAGUUUGUCGG [Aptamer 67]
- IC50 ([1]; 2'-F G, 2'-OMe A,C,U, 5' C6NH2, 3' idT, hemolysis): > 100 nM

Sequence: CCGCCUUGCCAGUAUUGGCUUAGGCUGGAAGUUGGCGG [Aptamer 27]
- functional effect of the aptamer [1, 4]: not active

Sequence: CCGCCUUGCCAGAUUGGCUUAGCUGGAAGUUUGGCGG [Aptamer 19]
- functional effect of the aptamer [1, 5]: not active

Sequence: CCGCCUUGCCAGUAUUGGCUUAGGCUGGAAGUUUGGCGGU [Aptamer 15 C3 spacer at 32]
- functional effect of the aptamer ([1]; as Aptamer 15, 3-carbon spacer replaces nt 32, hemolysis, complete loss of activity, variant of Aptamer 15): not active

Sequence: CCGCCUUGCCAGUAUUGGCUUAGGCUGGAAGUUUGGCGGU [Aptamer 15 C3 spacer at 33]
- functional effect of the aptamer ([1]; as Aptamer 15, 3-carbon spacer replaces U33, hemolysis, well tolerated, variant of Aptamer …): active

Sequence: GGGAGUGUGUACGAGGCAUUAGGCCGCCACCCAAACUGCAGUCCUCGUAAGUCUGCCUGGCGGCUUUGAUACUUGAUCGCCCUAGAAGC [C1]
- binding result [3]: no binding

Sequence: CCGCCUUGCCAGUAUUGGCUUAGGCUGGAAGUUUGGCGGU [Aptamer 15 C3 spacer at 20]
- functional effect of the aptamer ([1]; as Aptamer 15, 3-carbon spacer replaces nt 20, hemolysis, no loss of activity, variant of Aptamer 15): active

Sequence: CCGCCUUGCCAGUAUUGGCUUAGGCUGGAAGUUUGGCGGU [Aptamer 15 C3 spacer at 6]
- functional effect of the aptamer ([1]; as Aptamer 15, 3-carbon spacer replaces U6, hemolysis, modest to moderate reduction, variant of Aptamer 15): less active

Sequence: CCGCCUUGCCAGUAUUGGGCUGGAAGUUUGGCGG [Aptamer 24]
- functional effect of the aptamer [1, 6]: active

Sequence: CCGCCUUGCCAGUAUUGGCGGCUGGAAGUUUGGCGG [Aptamer 25]
- functional effect of the aptamer [1, 6]: active

Sequence: CCGCCUUGCCAGUAUUGGCUUAGGCUGGAAGUUUGGCGGU [Aptamer 15 C3 spacer at 31]
- functional effect of the aptamer ([1]; as Aptamer 15, 3-carbon spacer replaces nt 31, hemolysis, complete loss of activity, variant of Aptamer 15): not active

Sequence: CCGCCUUGCCAGUAUUGGCUUAGGCUGGAAGUUUGGCGGU [Aptamer 15 C3 spacer at 7]
- functional effect of the aptamer ([1]; as Aptamer 15, 3-carbon spacer replaces U7, hemolysis, modest to moderate reduction, variant of Aptamer 15): less active

Sequence: CCGCCUUGCCAGUAUUGGGCUGGAAGUUUGGCGG [Aptamer 21]
- functional effect of the aptamer [1, 7]: not active

Sequence: CCGUUGUGGGUAUUGGCUUAGGCCCAAAGUUUCGG [Aptamer 90]
- IC50 ([1]; 2'-F G, 2'-OMe A,C,U, 5' C6NH2, 3' idT, hemolysis, variant of Aptamer 15): > 100 nM

Sequence: CCGCCUUGCCAGUAUUGGCUUAGGCUGGAAGUUUGGCGG [Aptamer 15]
- functional effect of the aptamer ([2]; 2'-OMe A, C, U, 5' C6NH2, inhibits Z-Lys-SBzl esterase and C3bB convertase activity, data shown for S32 as example): active

Sequence: CAGUCUUGCGAGUUUGGCUAAGCUUCGAAGUUUGGCUG [Aptamer 37]
- functional effect of the aptamer ([1]; 2'-F G, 2'-OMe A,C,U, 5' C6NH2, 3' idT, appeared fully inactive): not active

Sequence: GGGAGUGUGUACGAGGCAUUAGGCCGCCACCUCGUUUGAUUGCGGUUGUUCGGCCGCGGGCGGCUUUGAUACUUGAUCGCCCUAGAAGC [C3]
- binding result [3]: no binding

Sequence: CCGCCUUGCCAGUAUUGGCUUAGGCUGGAAGUUUGGCGGU [Aptamer 15 C3 spacer at 8]
- functional effect of the aptamer ([1]; as Aptamer 15, 3-carbon spacer replaces G8, hemolysis, large loss of inhibition, variant of Aptamer 15): less active

Sequence: CCGCCUUGCCAGUAUUGGCUUAGGCUGGAAGUGGCGG [Aptamer 28]
- functional effect of the aptamer ([1]; 2'-F G, 2'-OMe A,C,U, 6-carbon spacer [I-6] between parts, 5' C6NH2, 3' idT, hemolysis, U33,U34 to 6-carbon spacer not tolerated, variant of Aptamer 15): not active

Sequence: CCGCCUUGCCAGUAUUGGCUUAGGCUGGAAGUUUGGCGG [S32]
- functional effect of the aptamer ([2]; 2'-OMe A,C,U, 5' C6 disulfide linker, potently inhibits Z-Lys-SBzl cleavage and C3bB convertase formation, variant of S31): active

Sequence: CCGCCUUGCAGUAUUGGCUUAGGCUGAAGUUUGGCGG [Aptamer 18]
- functional effect of the aptamer ([1]; 2'-F G, 2'-OMe A,C,U, 5' C6NH2, 3' idT, hemolysis at 10 and 100 nM, 4 bp stem 2 not tolerated, variant of Aptamer 15): not active

Sequence: CCGCCUUGCCAGUAUUGGCUUAGGCUGGAAGUUUGGCGGU [Aptamer 15 C3 spacer at 18]
- functional effect of the aptamer ([1]; as Aptamer 15, 3-carbon spacer replaces nt 18, hemolysis, no loss of activity, variant of Aptamer 15): active

Sequence: GGGAGUGUGUACGAGGCAUUAGUCCGCCGAAGUCUUUUGGCUCGGUUUUUUCAAGGUCGGCGGCUUUGAUACUUGAUCGCCCUAGAAGC [C2]
- binding result [3]: no binding

Sequence: CCGCCUUGCCAGUAUUGGCUUAGGCUGGAAGUUUGGCGGU [Aptamer 15 C3 spacer at 21]
- functional effect of the aptamer ([1]; as Aptamer 15, 3-carbon spacer replaces nt 21, hemolysis, no loss of activity, variant of Aptamer 15): active

Sequence: CCGCCUUGCCAGUAUUGGCUUAGGCUGGAAGUUUGGCGGU [Aptamer 15 C3 spacer at 22]
- functional effect of the aptamer ([1]; as Aptamer 15, 3-carbon spacer replaces nt 22, hemolysis, no loss of activity, variant of Aptamer 15): active

Sequence: CCGCCUUGCCAGUAUUGGCUUAGGCUGGAAGUUUGGCGGU [Aptamer 15 C3 spacer at 19]
- functional effect of the aptamer ([1]; as Aptamer 15, 3-carbon spacer replaces nt 19, hemolysis, no loss of activity, variant of Aptamer 15): active

Sequence: CCGCCUUGCCAGUAUUGGCUUAGGCUGGAAGUGGCGG [Aptamer 26]
- functional effect of the aptamer [1, 4]: not active

Sequence: CCGCCUUGAAGUAUUGGCUUAGGCUUAAGUUUGGCGG [Aptamer 20]
- functional effect of the aptamer [1, 5]: not active

Sequence: CCGCCUUGCCAGUAUUGGCGGCUGGAAGUUUGGCGG [Aptamer 22]
- functional effect of the aptamer [1, 7]: not active

Sequence: CCGCCUUGCCAGUAUUGGGCUGGAAGUUUGGCGG [Aptamer 23]
- functional effect of the aptamer ([1]; 2'-F G, 2'-OMe A,C,U, hexaethylene glycol spacer [I-18] between parts, 5' C6NH2, 3' idT, hemolysis, loop 2 spacer tolerated, variant of Aptamer 15): active

For some of these results: A negative result means that nothing was seen under these conditions. For some of these results: At least one result comes from cells or an extract, where the contact may be indirect. For some of these results: For at least one entry, the source does not settle the construct or the ends of the probe. For some of these results: Weaker means in comparison with the reference protein, sequence or condition of that experiment.
